Laboratory results published in the supplement of paper PMC10849652.
The list shows a part of the results.

By UniProt entry, the sequences of proteins in these tests, tags left out. Where a name states a change or a piece, a line headed by the entry shows the natural chain unless it says otherwise.
UniProt Q8NCS4: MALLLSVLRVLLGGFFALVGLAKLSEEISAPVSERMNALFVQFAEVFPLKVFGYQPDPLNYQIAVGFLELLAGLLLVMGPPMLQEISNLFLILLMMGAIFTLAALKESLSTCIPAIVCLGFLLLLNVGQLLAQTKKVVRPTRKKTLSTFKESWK
UniProt Q9BSE2: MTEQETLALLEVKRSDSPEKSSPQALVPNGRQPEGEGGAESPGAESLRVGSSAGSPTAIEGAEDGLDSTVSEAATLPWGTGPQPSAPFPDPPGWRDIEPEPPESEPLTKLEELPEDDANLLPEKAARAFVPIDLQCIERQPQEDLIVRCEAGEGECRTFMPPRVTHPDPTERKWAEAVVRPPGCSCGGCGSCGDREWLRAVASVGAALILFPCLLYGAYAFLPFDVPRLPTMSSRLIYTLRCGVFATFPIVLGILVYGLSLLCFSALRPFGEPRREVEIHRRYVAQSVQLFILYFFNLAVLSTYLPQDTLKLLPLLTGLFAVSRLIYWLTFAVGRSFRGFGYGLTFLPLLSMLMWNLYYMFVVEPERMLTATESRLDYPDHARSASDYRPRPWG
UniProt P21580: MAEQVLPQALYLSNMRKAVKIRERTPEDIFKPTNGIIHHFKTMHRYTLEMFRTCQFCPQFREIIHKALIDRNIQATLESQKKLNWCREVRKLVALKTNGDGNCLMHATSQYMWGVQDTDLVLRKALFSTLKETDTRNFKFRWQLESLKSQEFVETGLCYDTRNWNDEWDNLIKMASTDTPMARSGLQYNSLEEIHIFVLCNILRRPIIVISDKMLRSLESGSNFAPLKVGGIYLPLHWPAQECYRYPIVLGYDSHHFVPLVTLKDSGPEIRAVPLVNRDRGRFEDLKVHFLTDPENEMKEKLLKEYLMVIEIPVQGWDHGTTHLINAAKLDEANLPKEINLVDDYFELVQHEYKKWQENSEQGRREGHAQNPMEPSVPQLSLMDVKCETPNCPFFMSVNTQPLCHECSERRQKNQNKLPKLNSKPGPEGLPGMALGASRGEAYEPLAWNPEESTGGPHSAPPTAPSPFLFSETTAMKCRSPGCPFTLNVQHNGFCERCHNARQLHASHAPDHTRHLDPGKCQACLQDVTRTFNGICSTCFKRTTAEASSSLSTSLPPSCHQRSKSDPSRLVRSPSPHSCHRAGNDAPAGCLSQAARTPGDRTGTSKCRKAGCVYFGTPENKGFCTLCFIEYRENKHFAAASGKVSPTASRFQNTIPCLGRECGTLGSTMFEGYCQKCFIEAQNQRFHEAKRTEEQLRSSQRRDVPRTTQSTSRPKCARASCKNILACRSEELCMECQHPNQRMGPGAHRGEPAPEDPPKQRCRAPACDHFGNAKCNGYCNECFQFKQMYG
UniProt Q5SNT2: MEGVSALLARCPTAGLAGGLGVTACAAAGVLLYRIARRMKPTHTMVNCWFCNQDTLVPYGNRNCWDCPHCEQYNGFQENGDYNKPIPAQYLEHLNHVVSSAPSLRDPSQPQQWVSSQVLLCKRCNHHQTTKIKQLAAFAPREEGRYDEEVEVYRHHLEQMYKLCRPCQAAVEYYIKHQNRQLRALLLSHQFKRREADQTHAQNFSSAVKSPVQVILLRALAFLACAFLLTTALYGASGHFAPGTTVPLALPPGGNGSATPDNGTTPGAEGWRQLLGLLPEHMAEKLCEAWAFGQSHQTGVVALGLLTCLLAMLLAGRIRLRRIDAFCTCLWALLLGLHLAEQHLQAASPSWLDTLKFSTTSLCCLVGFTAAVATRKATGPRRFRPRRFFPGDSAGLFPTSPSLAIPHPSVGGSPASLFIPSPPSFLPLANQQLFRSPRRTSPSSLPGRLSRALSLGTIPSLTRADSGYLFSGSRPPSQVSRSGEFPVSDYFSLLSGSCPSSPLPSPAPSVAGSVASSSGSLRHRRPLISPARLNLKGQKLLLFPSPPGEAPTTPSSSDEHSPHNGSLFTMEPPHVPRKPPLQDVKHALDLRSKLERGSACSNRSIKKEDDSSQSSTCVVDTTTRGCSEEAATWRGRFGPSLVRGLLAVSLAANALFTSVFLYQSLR
UniProt Q9H6X4: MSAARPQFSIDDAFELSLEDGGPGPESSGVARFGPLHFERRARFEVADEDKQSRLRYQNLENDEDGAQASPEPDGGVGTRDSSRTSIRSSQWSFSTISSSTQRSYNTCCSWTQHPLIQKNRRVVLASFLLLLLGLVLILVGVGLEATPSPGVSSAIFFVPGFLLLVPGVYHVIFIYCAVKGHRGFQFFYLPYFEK
UniProt O95807: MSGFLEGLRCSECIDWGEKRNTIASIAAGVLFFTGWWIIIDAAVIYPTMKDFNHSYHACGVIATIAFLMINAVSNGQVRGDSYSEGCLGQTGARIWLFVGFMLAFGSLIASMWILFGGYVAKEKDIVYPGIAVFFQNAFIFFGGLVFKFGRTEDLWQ
UniProt Q9Y2Y6: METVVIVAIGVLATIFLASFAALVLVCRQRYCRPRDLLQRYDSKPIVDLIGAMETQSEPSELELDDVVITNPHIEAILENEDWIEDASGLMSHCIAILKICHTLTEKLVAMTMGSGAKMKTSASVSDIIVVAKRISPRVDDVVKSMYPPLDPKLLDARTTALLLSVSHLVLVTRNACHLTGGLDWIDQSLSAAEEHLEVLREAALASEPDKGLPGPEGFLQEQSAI
UniProt Q96B96: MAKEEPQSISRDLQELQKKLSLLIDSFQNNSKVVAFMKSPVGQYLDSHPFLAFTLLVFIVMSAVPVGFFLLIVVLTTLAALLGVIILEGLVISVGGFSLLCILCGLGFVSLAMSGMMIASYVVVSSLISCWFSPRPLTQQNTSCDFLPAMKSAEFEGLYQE
UniProt Q9NR96: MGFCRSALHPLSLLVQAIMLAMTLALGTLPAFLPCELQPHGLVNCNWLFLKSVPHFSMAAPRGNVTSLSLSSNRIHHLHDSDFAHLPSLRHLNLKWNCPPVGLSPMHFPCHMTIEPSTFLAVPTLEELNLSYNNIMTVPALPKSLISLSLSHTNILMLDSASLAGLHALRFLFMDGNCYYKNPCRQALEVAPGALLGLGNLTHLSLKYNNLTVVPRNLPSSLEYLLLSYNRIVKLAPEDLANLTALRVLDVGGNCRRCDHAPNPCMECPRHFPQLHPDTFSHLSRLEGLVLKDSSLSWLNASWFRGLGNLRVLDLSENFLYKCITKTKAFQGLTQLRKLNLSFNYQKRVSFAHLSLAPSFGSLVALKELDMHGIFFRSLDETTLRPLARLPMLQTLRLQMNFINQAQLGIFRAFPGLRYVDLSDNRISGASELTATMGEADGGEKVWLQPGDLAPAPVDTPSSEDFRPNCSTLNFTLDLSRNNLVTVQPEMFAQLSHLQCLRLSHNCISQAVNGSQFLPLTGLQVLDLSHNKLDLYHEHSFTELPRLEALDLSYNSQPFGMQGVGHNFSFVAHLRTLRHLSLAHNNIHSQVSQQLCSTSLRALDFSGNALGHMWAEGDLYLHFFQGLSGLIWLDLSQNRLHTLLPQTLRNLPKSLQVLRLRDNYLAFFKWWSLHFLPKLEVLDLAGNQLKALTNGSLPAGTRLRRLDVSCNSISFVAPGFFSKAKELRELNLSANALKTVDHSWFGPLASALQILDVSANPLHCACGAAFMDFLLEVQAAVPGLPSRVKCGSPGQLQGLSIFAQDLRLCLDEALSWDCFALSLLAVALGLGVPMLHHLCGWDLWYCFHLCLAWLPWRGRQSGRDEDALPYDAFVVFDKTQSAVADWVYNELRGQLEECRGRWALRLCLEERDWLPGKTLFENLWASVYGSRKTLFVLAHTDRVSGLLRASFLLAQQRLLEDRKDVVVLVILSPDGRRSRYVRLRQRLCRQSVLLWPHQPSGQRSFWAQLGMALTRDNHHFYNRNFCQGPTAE
UniProt Q86XT9, whole entry, looked up: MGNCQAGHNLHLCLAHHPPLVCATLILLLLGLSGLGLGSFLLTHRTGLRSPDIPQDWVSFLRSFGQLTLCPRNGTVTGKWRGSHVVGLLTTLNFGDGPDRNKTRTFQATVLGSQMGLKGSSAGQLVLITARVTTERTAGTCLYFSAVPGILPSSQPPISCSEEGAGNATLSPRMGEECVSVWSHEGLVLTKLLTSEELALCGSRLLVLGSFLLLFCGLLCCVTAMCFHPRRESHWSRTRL
UniProt P19438, whole entry, looked up: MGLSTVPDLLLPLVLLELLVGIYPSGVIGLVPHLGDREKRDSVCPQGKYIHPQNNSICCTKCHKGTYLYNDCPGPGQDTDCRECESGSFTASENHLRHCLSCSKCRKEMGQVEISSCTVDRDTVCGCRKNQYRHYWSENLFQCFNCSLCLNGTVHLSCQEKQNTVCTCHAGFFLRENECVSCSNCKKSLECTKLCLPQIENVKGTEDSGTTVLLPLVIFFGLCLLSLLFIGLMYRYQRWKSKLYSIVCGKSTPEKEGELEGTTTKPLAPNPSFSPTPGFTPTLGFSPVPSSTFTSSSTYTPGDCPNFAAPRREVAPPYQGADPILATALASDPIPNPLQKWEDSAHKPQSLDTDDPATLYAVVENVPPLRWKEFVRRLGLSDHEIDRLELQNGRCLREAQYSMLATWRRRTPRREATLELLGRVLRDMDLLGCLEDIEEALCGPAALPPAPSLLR
UniProt Q9BX74: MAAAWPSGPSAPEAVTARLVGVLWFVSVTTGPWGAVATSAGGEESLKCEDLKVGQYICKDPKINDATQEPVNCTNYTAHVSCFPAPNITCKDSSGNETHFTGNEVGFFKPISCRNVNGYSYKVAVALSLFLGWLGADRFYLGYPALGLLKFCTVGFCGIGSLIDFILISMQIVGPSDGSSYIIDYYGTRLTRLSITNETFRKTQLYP
UniProt Q92545: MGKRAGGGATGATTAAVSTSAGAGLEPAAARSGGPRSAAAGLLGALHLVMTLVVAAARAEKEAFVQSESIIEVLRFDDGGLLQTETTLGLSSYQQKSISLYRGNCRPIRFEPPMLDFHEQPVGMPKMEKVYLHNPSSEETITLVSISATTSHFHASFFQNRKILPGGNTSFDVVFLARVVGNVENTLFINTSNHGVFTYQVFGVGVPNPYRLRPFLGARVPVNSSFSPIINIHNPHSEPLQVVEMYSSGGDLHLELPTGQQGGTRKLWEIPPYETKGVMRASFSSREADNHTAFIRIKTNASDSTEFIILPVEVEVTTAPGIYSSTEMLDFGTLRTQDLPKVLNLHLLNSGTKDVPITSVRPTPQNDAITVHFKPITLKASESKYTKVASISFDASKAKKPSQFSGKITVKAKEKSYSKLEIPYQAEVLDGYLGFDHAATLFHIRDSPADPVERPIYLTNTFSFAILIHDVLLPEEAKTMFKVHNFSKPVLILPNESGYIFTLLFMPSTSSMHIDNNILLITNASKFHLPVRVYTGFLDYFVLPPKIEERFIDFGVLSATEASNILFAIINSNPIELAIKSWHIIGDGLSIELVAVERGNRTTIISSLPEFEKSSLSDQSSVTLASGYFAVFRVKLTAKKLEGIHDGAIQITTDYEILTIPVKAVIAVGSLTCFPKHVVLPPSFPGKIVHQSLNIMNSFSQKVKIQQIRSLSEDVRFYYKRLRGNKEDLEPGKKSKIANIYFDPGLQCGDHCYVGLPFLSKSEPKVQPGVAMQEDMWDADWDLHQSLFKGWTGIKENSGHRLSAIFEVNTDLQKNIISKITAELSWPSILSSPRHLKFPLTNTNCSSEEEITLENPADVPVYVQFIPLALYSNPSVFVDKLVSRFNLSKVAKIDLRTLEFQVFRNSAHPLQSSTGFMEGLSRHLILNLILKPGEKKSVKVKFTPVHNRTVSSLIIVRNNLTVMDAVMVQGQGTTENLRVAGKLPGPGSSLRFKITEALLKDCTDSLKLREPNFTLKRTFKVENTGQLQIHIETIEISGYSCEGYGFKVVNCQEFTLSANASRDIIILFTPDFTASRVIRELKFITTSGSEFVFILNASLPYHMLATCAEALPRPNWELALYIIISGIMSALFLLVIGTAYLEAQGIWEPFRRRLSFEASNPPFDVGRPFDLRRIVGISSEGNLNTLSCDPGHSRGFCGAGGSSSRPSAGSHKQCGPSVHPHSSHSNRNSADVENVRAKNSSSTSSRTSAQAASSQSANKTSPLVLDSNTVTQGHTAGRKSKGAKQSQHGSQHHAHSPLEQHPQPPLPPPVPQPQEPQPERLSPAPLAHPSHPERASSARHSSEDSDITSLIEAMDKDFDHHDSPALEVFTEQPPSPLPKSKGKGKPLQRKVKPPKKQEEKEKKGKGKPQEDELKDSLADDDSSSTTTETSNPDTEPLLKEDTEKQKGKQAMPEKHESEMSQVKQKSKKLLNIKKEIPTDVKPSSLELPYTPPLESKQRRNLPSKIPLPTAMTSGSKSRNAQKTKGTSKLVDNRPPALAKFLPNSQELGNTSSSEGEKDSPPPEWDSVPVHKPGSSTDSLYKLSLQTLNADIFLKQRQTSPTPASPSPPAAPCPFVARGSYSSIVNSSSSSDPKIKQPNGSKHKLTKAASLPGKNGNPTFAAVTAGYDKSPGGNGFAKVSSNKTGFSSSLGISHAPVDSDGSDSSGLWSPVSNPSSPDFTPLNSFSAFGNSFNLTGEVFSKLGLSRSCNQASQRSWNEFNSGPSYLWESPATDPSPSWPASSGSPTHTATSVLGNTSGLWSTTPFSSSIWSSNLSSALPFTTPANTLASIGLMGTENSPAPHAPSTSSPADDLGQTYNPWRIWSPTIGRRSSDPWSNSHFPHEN

These targets were tested with CN(CCOC1=CC=C(C=C1)C[C@H]2C(=O)NC(=O)S2)C3=CC=CC=N3 (racemic) [rosiglitazone] (assay: log2 fold change, soluble protein after heating vs DMSO (PISA); higher = thermal stabilisation; K562 cells, 10 uM, 30 min; active = over 0.2 and 3.5 SD of the protein, either way, in both replicates (recomputed)).
How it was run: (§1)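 Thermal stability values are relative to control samples and come from duplicates. They are expressed as log2 fold changes. For measurement, K562 cells (2×10^6 cells/mL) received 10 μM compound for 30 min, and aliquots were heated for 3 min over 48°C-58°C, pooled, and extracted at 4°C in PBS with 0.5% NP-40. Soluble protein, the supernatant after 21,000xg for 90 min, was quantified by TMTpro 16plex LC-MS/MS with equalised channel sums.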
For TMEM35B (UniProt Q8NCS4), the log2 fold change was inactive: 0.108. With TMEM79 (UniProt Q9BSE2) the log2 fold change was inactive: -0.009. TNFAIP3 (UniProt P21580) was tested, and the log2 fold change was inactive: 0.017. With TMEM184B (UniProt Q9Y519) the log2 fold change was inactive: 0.013. With TMEM201 (UniProt Q5SNT2) the log2 fold change was inactive: 0.083. In the case of TMEM106C (UniProt Q9BVX2), the log2 fold change is reported as inactive: 0.071. With TMEM134 (UniProt Q9H6X4) the log2 fold change was inactive: 0.226. With TMEM147 (UniProt Q9BVK8) the log2 fold change was inactive: 0.083. With TMEM50A (UniProt O95807) the log2 fold change was inactive: 0.144. For TNFAIP2 (UniProt Q03169), the log2 fold change was inactive: 0.043. TMEM98 (UniProt Q9Y2Y6) was tested, and the log2 fold change was inactive: -0.081. TMEM159 isoform 2 (UniProt Q96B96) was tested, and the log2 fold change was inactive: 0.017. In the case of TMCC3 (UniProt Q9ULS5), the log2 fold change is reported as inactive: -0.001. In the case of TLR9 isoform 4 (UniProt Q9NR96), the log2 fold change is reported as inactive: -0.019. In the case of TMTC4 isoform 3 (UniProt Q5T4D3), the log2 fold change is reported as inactive: -0.025.

These targets were tested with CN1C2=C(C3=C1C(=O)N(N=C3)CC4=CC(=CC=C4)N)SC(=C2)S(=O)C in the same assay as above.
How it was run: as §1
With TMEM219 (UniProt Q86XT9) the log2 fold change was inactive: -0.085. TMEM35B (UniProt Q8NCS4) was tested, and the log2 fold change was inactive: 0.006. With TMEM184C (UniProt Q9NVA4) the log2 fold change was inactive: -0.237. For TMEM94 isoform 2 (UniProt Q12767), the log2 fold change was inactive: -0.023. TMEM260 (UniProt Q9NX78) was tested, and the log2 fold change was inactive: 0.165. With TM7SF2 (UniProt O76062) the log2 fold change was inactive: 0.031. With TNFRSF1A (UniProt P19438) the log2 fold change was inactive: 0.227. With TMEM129 the log2 fold change was inactive: -0.076. For TMCO3 (UniProt Q6UWJ1), the log2 fold change was inactive: 0.239. TMEM201 (UniProt Q5SNT2) was tested, and the log2 fold change was inactive: 0.148. For TM6SF1 (UniProt Q9BZW5), the log2 fold change was inactive: 0.043. In the case of TMEM59 (UniProt Q9BXS4), the log2 fold change is reported as inactive: 0.001. With TMEM106C (UniProt Q9BVX2) the log2 fold change was inactive: 0.084. TMEM147 (UniProt Q9BVK8) was tested, and the log2 fold change was inactive: 0.031. For TMCC2 (UniProt O75069), the log2 fold change was inactive: -0.157. In the case of TMCC1 (UniProt O94876), the log2 fold change is reported as inactive: 0.167. In the case of TNFAIP2 (UniProt Q03169), the log2 fold change is reported as inactive: 0.086. For TMEM120B (UniProt A0PK00), the log2 fold change was inactive: -0.136. TMCO6 isoform 2 (UniProt Q96DC7) was tested, and the log2 fold change was inactive: -0.049. For TM2D1 (UniProt Q9BX74), the log2 fold change was inactive: -0.022. With TMEM159 isoform 2 (UniProt Q96B96) the log2 fold change was inactive: -0.039. With TLR9 isoform 4 (UniProt Q9NR96) the log2 fold change was inactive: -0.221. For TMTC4 isoform 3 (UniProt Q5T4D3), the log2 fold change was inactive: -0.108.

The targets below were run with CN1CCC(CNc2ccc3ncc(-c4cccc(OC(F)(F)F)c4)n3n2)CC1 in the same assay as above.
How it was run: as §1
For TMEM219 (UniProt Q86XT9), the log2 fold change was inactive: -0.029. For TMEM35B (UniProt Q8NCS4), the log2 fold change was inactive: 0.044. For TMEM184C (UniProt Q9NVA4), the log2 fold change was active: -0.492. With TNFAIP3 (UniProt P21580) the log2 fold change was inactive: -0.04. TNFRSF1A (UniProt P19438) was tested, and the log2 fold change was inactive: -0.381. With TMEM237 isoform 3 (UniProt Q96Q45) the log2 fold change was inactive: -0.03. With TMCO3 (UniProt Q6UWJ1) the log2 fold change was inactive: -0.362. For TMEM201 (UniProt Q5SNT2), the log2 fold change was inactive: -0.135. In the case of TM6SF1 (UniProt Q9BZW5), the log2 fold change is reported as inactive: 0.067. With TMPO (UniProt G5E972) the log2 fold change was inactive: -0.002. With TMEM59 (UniProt Q9BXS4) the log2 fold change was inactive: 0.038. With TMEM134 (UniProt Q9H6X4) the log2 fold change was inactive: -0.054. For TMCC1 (UniProt O94876), the log2 fold change was inactive: -0.024. In the case of TMEM120B (UniProt A0PK00), the log2 fold change is reported as inactive: 0.088. TMCO6 isoform 2 (UniProt Q96DC7) was tested, and the log2 fold change was inactive: 0.159. For TMEM159 isoform 2 (UniProt Q96B96), the log2 fold change was inactive: 0.007. For TMEM131 (UniProt Q92545), the log2 fold change was inactive: -0.28.
